Assay results from the supplement of paper PMC10849652.
The other results are listed elsewhere or left out.

By UniProt entry, the sequences of proteins in these tests, tags left out. Where a name states a change or a piece, a line headed by the entry shows the natural chain unless it says otherwise.
UniProt Q9BRT3: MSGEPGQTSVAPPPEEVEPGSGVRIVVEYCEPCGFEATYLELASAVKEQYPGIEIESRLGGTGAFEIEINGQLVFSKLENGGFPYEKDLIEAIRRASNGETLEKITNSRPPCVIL
UniProt Q9BPX6: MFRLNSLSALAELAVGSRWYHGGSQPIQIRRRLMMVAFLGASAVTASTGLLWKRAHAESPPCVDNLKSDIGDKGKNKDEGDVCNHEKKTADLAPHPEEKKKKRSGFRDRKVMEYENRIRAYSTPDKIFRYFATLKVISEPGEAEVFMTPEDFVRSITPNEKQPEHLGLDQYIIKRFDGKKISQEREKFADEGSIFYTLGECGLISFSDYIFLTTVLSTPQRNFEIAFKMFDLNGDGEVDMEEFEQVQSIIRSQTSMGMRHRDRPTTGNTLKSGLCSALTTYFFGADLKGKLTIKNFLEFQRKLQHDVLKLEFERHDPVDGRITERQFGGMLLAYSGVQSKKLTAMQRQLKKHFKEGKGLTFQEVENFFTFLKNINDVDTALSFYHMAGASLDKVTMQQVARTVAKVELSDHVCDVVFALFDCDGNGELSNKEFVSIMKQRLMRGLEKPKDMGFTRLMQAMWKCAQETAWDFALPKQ
UniProt Q5TGZ0: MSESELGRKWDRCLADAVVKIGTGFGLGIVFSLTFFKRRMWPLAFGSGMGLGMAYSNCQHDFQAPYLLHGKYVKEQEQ
UniProt Q6IN84: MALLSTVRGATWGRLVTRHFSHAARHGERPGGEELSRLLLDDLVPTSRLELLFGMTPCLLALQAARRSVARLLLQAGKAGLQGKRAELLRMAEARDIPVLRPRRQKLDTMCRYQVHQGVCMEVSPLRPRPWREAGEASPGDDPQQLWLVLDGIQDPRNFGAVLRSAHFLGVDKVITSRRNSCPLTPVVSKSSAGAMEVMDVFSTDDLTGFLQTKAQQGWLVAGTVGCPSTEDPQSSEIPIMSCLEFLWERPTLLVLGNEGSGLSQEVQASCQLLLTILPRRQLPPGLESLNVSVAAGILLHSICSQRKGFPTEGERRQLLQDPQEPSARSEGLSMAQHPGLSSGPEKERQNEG
UniProt Q00013: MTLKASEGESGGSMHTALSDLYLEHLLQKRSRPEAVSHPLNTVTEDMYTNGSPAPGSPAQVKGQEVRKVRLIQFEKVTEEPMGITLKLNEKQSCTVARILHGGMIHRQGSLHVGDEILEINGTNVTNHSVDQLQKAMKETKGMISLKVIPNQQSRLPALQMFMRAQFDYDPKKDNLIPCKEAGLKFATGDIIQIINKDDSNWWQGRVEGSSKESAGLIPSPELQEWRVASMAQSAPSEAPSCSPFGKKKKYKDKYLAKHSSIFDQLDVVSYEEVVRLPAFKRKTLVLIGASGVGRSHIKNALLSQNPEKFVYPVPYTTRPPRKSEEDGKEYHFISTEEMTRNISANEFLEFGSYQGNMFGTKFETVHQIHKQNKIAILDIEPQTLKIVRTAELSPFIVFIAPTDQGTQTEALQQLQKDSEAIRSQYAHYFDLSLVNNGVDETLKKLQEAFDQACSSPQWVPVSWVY
UniProt Q9BVC4, whole entry, looked up: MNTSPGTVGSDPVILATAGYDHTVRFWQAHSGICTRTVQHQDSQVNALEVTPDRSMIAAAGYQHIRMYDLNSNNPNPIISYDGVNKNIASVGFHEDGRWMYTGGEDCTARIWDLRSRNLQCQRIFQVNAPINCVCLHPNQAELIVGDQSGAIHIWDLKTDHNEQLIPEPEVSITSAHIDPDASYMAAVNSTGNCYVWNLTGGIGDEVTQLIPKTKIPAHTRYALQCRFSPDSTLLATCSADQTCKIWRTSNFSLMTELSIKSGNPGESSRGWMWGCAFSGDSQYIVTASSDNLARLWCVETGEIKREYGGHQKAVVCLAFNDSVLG
UniProt Q8N4C8: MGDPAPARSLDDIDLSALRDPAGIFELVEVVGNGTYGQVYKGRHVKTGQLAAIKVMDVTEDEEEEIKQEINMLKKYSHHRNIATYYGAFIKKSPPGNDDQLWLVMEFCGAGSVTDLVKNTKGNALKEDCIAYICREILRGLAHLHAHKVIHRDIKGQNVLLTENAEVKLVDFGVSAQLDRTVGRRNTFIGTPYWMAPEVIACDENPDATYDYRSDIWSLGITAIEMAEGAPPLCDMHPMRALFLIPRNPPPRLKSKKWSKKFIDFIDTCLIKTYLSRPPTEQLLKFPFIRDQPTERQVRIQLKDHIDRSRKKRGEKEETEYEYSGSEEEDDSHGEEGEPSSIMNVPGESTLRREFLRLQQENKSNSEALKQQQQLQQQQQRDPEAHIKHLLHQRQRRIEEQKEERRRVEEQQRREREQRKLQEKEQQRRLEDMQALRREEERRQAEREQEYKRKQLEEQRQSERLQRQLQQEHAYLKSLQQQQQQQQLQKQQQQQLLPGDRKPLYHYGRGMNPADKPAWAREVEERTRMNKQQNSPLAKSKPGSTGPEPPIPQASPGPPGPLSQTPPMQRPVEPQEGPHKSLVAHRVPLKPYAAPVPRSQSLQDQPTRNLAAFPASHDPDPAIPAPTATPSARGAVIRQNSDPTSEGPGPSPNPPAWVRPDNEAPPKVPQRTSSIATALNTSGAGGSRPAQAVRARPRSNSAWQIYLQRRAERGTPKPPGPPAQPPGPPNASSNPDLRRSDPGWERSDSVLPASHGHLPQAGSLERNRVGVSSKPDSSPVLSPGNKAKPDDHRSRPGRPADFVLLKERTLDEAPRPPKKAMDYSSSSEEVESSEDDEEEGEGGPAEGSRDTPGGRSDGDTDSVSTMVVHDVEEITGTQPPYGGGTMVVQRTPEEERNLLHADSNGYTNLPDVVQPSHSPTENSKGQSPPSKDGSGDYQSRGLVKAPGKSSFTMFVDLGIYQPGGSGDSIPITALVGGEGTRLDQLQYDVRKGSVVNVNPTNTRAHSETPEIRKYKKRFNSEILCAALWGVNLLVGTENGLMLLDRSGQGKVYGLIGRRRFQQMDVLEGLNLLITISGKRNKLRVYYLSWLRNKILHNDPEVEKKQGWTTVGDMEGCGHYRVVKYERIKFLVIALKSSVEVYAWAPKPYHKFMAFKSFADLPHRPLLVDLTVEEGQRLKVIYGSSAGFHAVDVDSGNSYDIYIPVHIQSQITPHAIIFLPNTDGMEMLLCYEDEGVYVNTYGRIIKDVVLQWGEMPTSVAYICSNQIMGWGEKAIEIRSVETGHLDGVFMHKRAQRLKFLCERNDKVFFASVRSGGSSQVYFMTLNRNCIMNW
UniProt Q7L1V2: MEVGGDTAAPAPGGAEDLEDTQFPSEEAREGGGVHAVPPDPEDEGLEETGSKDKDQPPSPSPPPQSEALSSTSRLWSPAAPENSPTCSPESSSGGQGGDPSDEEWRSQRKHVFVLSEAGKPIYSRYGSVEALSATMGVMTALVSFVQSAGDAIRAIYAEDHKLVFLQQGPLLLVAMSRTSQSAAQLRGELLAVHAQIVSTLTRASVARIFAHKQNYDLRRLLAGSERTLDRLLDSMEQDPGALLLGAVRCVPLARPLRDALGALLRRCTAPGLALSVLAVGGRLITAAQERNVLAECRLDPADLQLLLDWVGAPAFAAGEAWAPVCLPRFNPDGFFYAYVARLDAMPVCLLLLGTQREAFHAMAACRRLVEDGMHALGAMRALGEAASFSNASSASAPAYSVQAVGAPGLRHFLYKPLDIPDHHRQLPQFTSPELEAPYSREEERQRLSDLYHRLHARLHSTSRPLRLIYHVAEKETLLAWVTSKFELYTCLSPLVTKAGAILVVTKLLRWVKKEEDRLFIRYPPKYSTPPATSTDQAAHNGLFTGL
UniProt Q13064: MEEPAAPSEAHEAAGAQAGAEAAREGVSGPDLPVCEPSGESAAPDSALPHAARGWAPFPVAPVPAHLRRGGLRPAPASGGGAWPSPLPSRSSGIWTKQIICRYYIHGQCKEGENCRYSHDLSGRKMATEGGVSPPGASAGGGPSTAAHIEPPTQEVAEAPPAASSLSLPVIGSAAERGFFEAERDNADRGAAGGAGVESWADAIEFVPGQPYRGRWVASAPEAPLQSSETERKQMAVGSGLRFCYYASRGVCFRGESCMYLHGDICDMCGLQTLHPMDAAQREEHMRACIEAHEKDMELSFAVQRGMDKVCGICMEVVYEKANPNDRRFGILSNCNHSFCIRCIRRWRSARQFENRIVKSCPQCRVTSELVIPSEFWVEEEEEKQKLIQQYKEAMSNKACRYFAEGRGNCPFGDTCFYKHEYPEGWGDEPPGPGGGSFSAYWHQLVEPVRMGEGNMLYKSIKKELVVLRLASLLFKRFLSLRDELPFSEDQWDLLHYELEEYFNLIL
UniProt Q8IYU8: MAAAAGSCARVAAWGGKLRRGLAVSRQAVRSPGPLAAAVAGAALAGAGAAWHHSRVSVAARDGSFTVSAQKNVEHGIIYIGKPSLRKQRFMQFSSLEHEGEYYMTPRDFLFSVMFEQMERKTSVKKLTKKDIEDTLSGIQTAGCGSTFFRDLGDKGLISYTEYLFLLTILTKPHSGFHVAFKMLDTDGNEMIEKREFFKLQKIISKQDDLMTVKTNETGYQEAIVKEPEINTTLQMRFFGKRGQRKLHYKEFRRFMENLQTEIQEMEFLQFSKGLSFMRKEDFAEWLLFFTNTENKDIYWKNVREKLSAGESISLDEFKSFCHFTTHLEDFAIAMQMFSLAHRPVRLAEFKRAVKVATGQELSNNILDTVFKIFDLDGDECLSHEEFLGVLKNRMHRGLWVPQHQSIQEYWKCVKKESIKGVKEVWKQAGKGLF
UniProt Q14149: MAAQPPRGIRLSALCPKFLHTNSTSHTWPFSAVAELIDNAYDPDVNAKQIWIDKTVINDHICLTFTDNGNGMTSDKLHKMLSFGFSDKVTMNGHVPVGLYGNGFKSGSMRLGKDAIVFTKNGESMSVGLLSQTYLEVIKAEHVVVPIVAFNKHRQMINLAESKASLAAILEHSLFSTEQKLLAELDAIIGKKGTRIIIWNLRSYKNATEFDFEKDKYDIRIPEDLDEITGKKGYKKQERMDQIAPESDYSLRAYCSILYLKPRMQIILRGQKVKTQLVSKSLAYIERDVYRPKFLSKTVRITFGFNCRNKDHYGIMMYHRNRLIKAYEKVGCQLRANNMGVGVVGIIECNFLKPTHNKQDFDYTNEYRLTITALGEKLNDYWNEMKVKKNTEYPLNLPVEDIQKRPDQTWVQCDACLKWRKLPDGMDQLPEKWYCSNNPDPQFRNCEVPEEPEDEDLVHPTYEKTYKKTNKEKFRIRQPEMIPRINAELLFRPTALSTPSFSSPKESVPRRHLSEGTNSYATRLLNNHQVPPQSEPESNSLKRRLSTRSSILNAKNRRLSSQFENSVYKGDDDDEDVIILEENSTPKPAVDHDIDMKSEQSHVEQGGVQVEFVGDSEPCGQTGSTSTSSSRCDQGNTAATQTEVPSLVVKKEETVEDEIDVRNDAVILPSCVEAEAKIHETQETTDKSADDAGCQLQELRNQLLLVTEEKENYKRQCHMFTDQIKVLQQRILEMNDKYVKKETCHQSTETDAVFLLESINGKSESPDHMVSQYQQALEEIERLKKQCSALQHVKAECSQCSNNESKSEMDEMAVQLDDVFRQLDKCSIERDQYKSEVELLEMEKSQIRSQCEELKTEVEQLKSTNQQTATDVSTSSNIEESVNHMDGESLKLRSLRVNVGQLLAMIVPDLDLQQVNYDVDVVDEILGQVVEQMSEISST
UniProt Q9HCE1: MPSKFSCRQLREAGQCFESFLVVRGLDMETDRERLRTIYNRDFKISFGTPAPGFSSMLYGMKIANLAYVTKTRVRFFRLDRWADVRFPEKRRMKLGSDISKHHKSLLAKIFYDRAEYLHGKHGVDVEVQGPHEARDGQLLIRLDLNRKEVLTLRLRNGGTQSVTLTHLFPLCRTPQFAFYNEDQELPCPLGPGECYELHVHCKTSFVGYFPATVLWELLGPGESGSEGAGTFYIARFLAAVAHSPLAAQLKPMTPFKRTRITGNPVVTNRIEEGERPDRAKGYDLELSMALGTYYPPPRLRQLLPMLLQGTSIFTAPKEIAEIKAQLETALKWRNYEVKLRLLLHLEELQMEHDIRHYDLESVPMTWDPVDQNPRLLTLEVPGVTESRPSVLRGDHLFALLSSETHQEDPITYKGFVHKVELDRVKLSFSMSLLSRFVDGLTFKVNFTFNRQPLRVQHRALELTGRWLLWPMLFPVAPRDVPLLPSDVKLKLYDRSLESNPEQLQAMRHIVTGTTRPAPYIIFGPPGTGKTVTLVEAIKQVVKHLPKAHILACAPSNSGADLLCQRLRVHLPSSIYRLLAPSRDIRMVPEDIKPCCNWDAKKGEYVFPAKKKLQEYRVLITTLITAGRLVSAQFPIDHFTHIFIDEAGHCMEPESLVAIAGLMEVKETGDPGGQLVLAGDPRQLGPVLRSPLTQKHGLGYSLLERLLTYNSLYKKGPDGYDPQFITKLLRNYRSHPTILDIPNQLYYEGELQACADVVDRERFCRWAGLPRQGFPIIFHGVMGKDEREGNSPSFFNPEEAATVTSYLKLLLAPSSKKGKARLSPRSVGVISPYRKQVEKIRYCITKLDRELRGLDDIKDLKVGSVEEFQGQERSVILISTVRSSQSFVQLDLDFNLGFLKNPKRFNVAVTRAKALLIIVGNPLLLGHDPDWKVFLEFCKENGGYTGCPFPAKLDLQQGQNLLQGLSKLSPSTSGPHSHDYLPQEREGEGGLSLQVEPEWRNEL

What was measured:
Assay in all cases: log2 fold change, soluble protein after heating vs DMSO (PISA); higher = thermal stabilisation; K562 cells, 10 uM, 30 min; active = over 0.2 and 3.5 SD of the protein, either way, in both replicates (recomputed)
[1] = compound: CC[C@@H]1C(=O)N(C)c2cnc(Nc3ccc(C(=O)NC4CCN(C)CC4)cc3OC)nc2N1C1CCCC1
Summary of the method: (§1)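 K562 cells (2×10^6 cells/mL) were treated with 10 μM compound for 30 min, and aliquots were heated for 3 min over 48°C-58°C. Pooled aliquots were extracted in PBS with 0.5% NP-40 at 4°C, and the supernatant after 21,000xg for 90 min was measured by TMTpro 16plex LC-MS/MS with channel sums equalised. Reported thermal stability, relative to control samples and from duplicates, is a log2 fold change.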

volasertib = compound: CC[C@@H]1C(=O)N(C)c2cnc(Nc3ccc(C(=O)N[C@H]4CC[C@H](N5CCN(CC6CC6)CC5)CC4)cc3OC)nc2N1C(C)C [volasertib]
Summary of the method: as §1

[2] = compound: CC[C@H](C)N1C=C(C2=C(C=C(C=C21)C3=CN=C(C=C3)N4CCNCC4)C(=O)NCC5=C(C=C(NC5=O)C)C)C
Summary of the method: as §1

epoxomicin = compound: CC[C@H](C)[C@@H](C(=O)N[C@@H]([C@@H](C)O)C(=O)N[C@@H](CC(C)C)C(=O)[C@]1(CO1)C)NC(=O)[C@H]([C@@H](C)CC)N(C)C(=O)C [epoxomicin]
Summary of the method: as §1

[3] = compound: CCn1c(C(=O)N(C2CC2)C2CC2)cc2c3c(ncn3C)c(Nc3cc(C)n(C)n3)nc21
Summary of the method: as §1

[4] = compound: CN(C)CC(=O)Nc1ccc2[nH]c(=O)c3ccccc3c2c1
Summary of the method: as §1

rosiglitazone = compound: CN(CCOC1=CC=C(C=C1)C[C@H]2C(=O)NC(=O)S2)C3=CC=CC=N3 (racemic) [rosiglitazone]
Summary of the method: as §1

[5] = compound: CN1C2=C(C3=C1C(=O)N(N=C3)CC4=CC(=CC=C4)N)SC(=C2)S(=O)C
Summary of the method: as §1

saracatinib = compound: CN1CCN(CCOc2cc(OC3CCOCC3)c3c(Nc4c(Cl)ccc5c4OCO5)ncnc3c2)CC1 [saracatinib]
Summary of the method: as §1

sotrastaurin = compound: CN1CCN(c2nc(C3=C(c4c[nH]c5ccccc45)C(=O)NC3=O)c3ccccc3n2)CC1 [sotrastaurin]
Summary of the method: as §1

alvocidib = compound: CN1CC[C@H](c2c(O)cc(O)c3c(=O)cc(-c4ccccc4Cl)oc23)[C@H](O)C1 [alvocidib]
Summary of the method: as §1

Tubastatin A = compound: CN1CCc2c(c3ccccc3n2Cc2ccc(C(=O)NO)cc2)C1 [Tubastatin A]
Summary of the method: as §1

[6] = compound: CNC(=O)C1=CC=CC=C1NC2=NC(=NC=C2Cl)NC3=C(C=C(C=C3)N4CCOCC4)OC
Summary of the method: as §1

defactinib = compound: CNC(=O)c1ccc(Nc2ncc(C(F)(F)F)c(NCc3nccnc3N(C)S(C)(=O)=O)n2)cc1 [defactinib]
Summary of the method: as §1

rucaparib = compound: CNCc1ccc(-c2[nH]c3cc(F)cc4c3c2CCNC4=O)cc1 [rucaparib]
Summary of the method: as §1

[7] = compound: CNc1nc(-c2ccc3c(N)n[nH]c3c2)cc(N2C[C@@H](C(=O)NC3CCCCC3)CC[C@H]2C)n1
Summary of the method: as §1

encorafenib = compound: COC(=O)N[C@@H](C)CNc1nccc(-c2cn(C(C)C)nc2-c2cc(Cl)cc(NS(C)(=O)=O)c2F)n1 [encorafenib]
Summary of the method: as §1

[8] = compound: COC(=O)[C@H](CCSC)NC(=O)C1=C(C=C(C=C1)NC[C@H](CS)N)C2=CC=CC=C2
Summary of the method: as §1

[9] = compound: CCn1cc(-c2ccnc3[nH]c(-c4cccc(CN(C)C)c4)cc23)c(-c2ccc(NC(=O)N(C)C)cc2)n1
Summary of the method: as §1

[10] = compound: CN1CCC(CNc2ccc3ncc(-c4cccc(OC(F)(F)F)c4)n3n2)CC1
Summary of the method: as §1

Target | log2 fold change [1] | log2 fold change (volasertib) | log2 fold change [2] | log2 fold change (epoxomicin) | log2 fold change [3] | log2 fold change [4] | log2 fold change (rosiglitazone) | log2 fold change [5] | log2 fold change (saracatinib) | log2 fold change (sotrastaurin) | log2 fold change (alvocidib) | log2 fold change (Tubastatin A) | log2 fold change [6] | log2 fold change (defactinib) | log2 fold change (rucaparib) | log2 fold change [7] | log2 fold change (encorafenib) | log2 fold change [8] | log2 fold change [9] | log2 fold change [10]
MRPL33 (UniProt O75394) | inactive: 0.138 | inactive: 0.168 | inactive: 0.144 | inactive: -0.174 | inactive: -0.015 | inactive: 0.066 | inactive: 0.074 | inactive: -0.07 | inactive: -0.255 | inactive: 0.015 | inactive: 0.091 | inactive: 0.08 | inactive: 0.105 | inactive: 0.136 | inactive: 0.067 | inactive: 0.226 | inactive: 0.19 | inactive: -0.044 | – | –
MIEN1 (UniProt Q9BRT3) | inactive: 0.055 | inactive: -0.047 | inactive: -0.02 | inactive: 0.008 | – | inactive: 0.181 | – | inactive: 0.008 | inactive: 0.049 | inactive: -0.067 | – | inactive: 0.069 | inactive: -0.002 | inactive: -0.067 | inactive: -0.032 | inactive: -0.019 | inactive: -0.051 | inactive: 0.129 | inactive: 0.029 | active: 0.284
MICU1 isoform 3 (UniProt Q9BPX6) | inactive: -0.113 | inactive: -0.281 | inactive: 0.031 | inactive: 0.026 | – | inactive: 0.006 | – | inactive: 0.077 | inactive: -0.073 | inactive: 0 | – | inactive: -0.007 | inactive: -0.054 | inactive: 0.172 | inactive: 0.134 | inactive: -0.012 | inactive: 0.121 | inactive: -0.05 | inactive: 0.008 | active: -0.369
MRPL50 (UniProt Q8N5N7) | inactive: 0.026 | inactive: -0.029 | inactive: -0.063 | inactive: 0.094 | – | inactive: 0.037 | – | inactive: -0.043 | inactive: 0.148 | inactive: -0.048 | – | inactive: 0.133 | inactive: -0.011 | inactive: 0.04 | inactive: 0.063 | inactive: -0.065 | inactive: -0.01 | inactive: 0.061 | inactive: -0.044 | inactive: 0.308
MICOS10 (UniProt Q5TGZ0) | inactive: 0.001 | inactive: -0.312 | inactive: -0.175 | inactive: 0.103 | inactive: 0.061 | inactive: -0.014 | inactive: 0.034 | – | – | inactive: -0.068 | – | inactive: -0.214 | inactive: 0.037 | inactive: -0.019 | inactive: -0.105 | – | inactive: 0.055 | inactive: 0.053 | inactive: -0.02 | inactive: -0.078
MRM1 (UniProt Q6IN84) | inactive: 0.193 | inactive: 0.138 | inactive: -0.033 | inactive: -0.156 | inactive: 0.052 | inactive: -0.046 | inactive: -0.054 | inactive: 0.19 | inactive: -0.041 | inactive: -0.025 | inactive: 0.16 | inactive: 0.095 | inactive: 0.112 | inactive: 0.118 | inactive: 0.223 | inactive: -0.073 | inactive: 0.087 | inactive: -0.013 | – | –
MPP1 (UniProt Q00013) | inactive: -0.039 | inactive: -0.112 | inactive: 0.063 | inactive: 0.058 | – | inactive: 0.011 | – | inactive: 0.043 | inactive: -0.023 | inactive: -0.085 | – | inactive: 0.051 | inactive: 0.073 | inactive: -0.082 | inactive: 0.104 | inactive: 0.059 | inactive: 0.067 | inactive: -0.047 | inactive: -0.051 | active: -0.256
MLST8 (UniProt Q9BVC4) | inactive: -0.22 | active: -0.353 | inactive: 0.05 | inactive: -0.02 | – | inactive: 0.109 | – | inactive: -0.016 | inactive: -0.124 | inactive: -0.003 | – | inactive: 0.124 | inactive: -0.116 | inactive: -0.092 | inactive: 0.099 | inactive: 0.014 | inactive: 0.101 | inactive: -0.106 | – | –
MRPL42 (UniProt Q9Y6G3) | inactive: 0.181 | inactive: 0.267 | inactive: -0.026 | inactive: -0.013 | – | inactive: -0.068 | inactive: -0.137 | inactive: 0.077 | inactive: -0.006 | inactive: -0.052 | inactive: 0.04 | inactive: 0.079 | – | inactive: 0.106 | inactive: -0.006 | inactive: -0.016 | inactive: 0.115 | inactive: 0.036 | inactive: -0.034 | inactive: 0.246
MICALL1 (UniProt Q8N3F8) | inactive: 0.107 | inactive: -0.004 | inactive: -0.025 | inactive: -0.198 | inactive: 0.034 | inactive: -0.079 | – | inactive: -0.039 | inactive: -0.042 | inactive: 0.029 | inactive: -0.076 | inactive: -0.05 | inactive: -0.053 | inactive: -0.052 | inactive: -0.025 | inactive: -0.141 | inactive: 0.026 | inactive: 0.028 | inactive: 0.06 | inactive: -0.011
MINK1 (UniProt Q8N4C8) | inactive: -0.01 | inactive: -0.149 | inactive: 0.056 | inactive: -0.009 | – | inactive: -0.035 | – | inactive: -0.004 | inactive: -0.052 | inactive: -0.009 | – | inactive: -0.015 | inactive: -0.007 | inactive: -0.069 | inactive: -0.033 | inactive: -0.029 | inactive: 0.044 | inactive: 0.012 | inactive: -0.069 | inactive: -0.137
MON1B (UniProt Q7L1V2) | inactive: -0.002 | inactive: -0.183 | inactive: -0.021 | inactive: -0.028 | – | inactive: -0.024 | – | inactive: -0.011 | inactive: 0.005 | inactive: -0.028 | – | inactive: 0.048 | inactive: -0.011 | inactive: 0.016 | inactive: -0.015 | inactive: -0.036 | inactive: 0.037 | inactive: -0.013 | inactive: 0.013 | active: -0.377
MON2 isoform 5 (UniProt Q7Z3U7) | inactive: -0.125 | active: -0.377 | inactive: 0.06 | inactive: 0.023 | – | inactive: 0.031 | – | inactive: -0.064 | inactive: -0.089 | inactive: -0.001 | – | inactive: -0.005 | inactive: 0.02 | inactive: -0.011 | inactive: 0.01 | inactive: 0.044 | inactive: 0.026 | inactive: -0.025 | inactive: -0.028 | inactive: -0.158
MKRN3 (UniProt Q13064) | inactive: 0.02 | inactive: -0.112 | inactive: -0.076 | inactive: -0.116 | inactive: -0.087 | inactive: -0.153 | – | inactive: 0.137 | inactive: 0.026 | inactive: 0.035 | – | inactive: 0.221 | inactive: 0.18 | inactive: -0.075 | inactive: -0.09 | inactive: -0.253 | inactive: 0.033 | inactive: -0.028 | – | –
MPHOSPH10 (UniProt O00566) | inactive: 0.099 | inactive: -0.155 | inactive: 0.084 | inactive: -0.26 | – | inactive: -0.012 | – | inactive: 0.314 | inactive: -0.123 | inactive: -0.061 | – | inactive: 0.098 | inactive: -0.023 | inactive: 0.11 | inactive: 0.229 | inactive: -0.081 | inactive: 0.214 | inactive: 0.045 | inactive: 0.182 | inactive: 0.133
MICU2 (UniProt Q8IYU8) | inactive: -0.135 | inactive: -0.118 | inactive: 0 | inactive: 0.067 | – | inactive: 0.007 | – | inactive: 0.097 | inactive: 0 | inactive: -0.001 | – | inactive: 0.057 | inactive: -0.03 | inactive: -0.014 | inactive: 0.102 | inactive: -0.021 | inactive: 0.073 | inactive: -0.044 | inactive: -0.046 | active: -0.309
MMS19 isoform 8 (UniProt Q96T76) | inactive: -0.102 | active: -0.43 | inactive: 0.075 | inactive: 0.013 | – | inactive: 0.11 | – | inactive: 0.051 | inactive: -0.013 | inactive: -0.156 | – | inactive: -0.071 | inactive: 0.003 | inactive: -0.127 | inactive: 0.052 | inactive: -0.003 | inactive: 0.099 | inactive: -0.008 | inactive: -0.052 | inactive: -0.085
MORC3 (UniProt Q14149) | inactive: -0.141 | active: -0.509 | inactive: 0.086 | inactive: 0.125 | – | inactive: 0.071 | – | inactive: -0.058 | inactive: 0 | inactive: -0.141 | – | inactive: -0.247 | inactive: 0.249 | inactive: -0.184 | inactive: 0.044 | inactive: -0.02 | inactive: 0.076 | inactive: -0.048 | inactive: -0.027 | inactive: -0.017
MOV10 (UniProt Q9HCE1) | inactive: 0.199 | inactive: 0.195 | inactive: -0.029 | inactive: -0.156 | – | inactive: -0.061 | – | inactive: 0.185 | inactive: 0.007 | inactive: 0.024 | – | inactive: 0.025 | inactive: 0.107 | inactive: 0.167 | inactive: 0.271 | inactive: 0 | inactive: 0.05 | inactive: 0.053 | inactive: 0.158 | inactive: 0.331

At a glance, part of the list above:
Target | log2 fold change [1] | log2 fold change (volasertib) | log2 fold change [2] | log2 fold change (epoxomicin) | log2 fold change [3] | log2 fold change [4] | log2 fold change (rosiglitazone) | log2 fold change [5] | log2 fold change (saracatinib) | log2 fold change (sotrastaurin) | log2 fold change (alvocidib) | log2 fold change (Tubastatin A) | log2 fold change [6] | log2 fold change (defactinib) | log2 fold change (rucaparib) | log2 fold change [7] | log2 fold change (encorafenib) | log2 fold change [8] | log2 fold change [9] | log2 fold change [10]
MRPL50 (UniProt Q8N5N7) | inactive: 0.026 | inactive: -0.029 | inactive: -0.063 | inactive: 0.094 | – | inactive: 0.037 | – | inactive: -0.043 | inactive: 0.148 | inactive: -0.048 | – | inactive: 0.133 | inactive: -0.011 | inactive: 0.04 | inactive: 0.063 | inactive: -0.065 | inactive: -0.01 | inactive: 0.061 | inactive: -0.044 | inactive: 0.308
MICOS10 (UniProt Q5TGZ0) | inactive: 0.001 | inactive: -0.312 | inactive: -0.175 | inactive: 0.103 | inactive: 0.061 | inactive: -0.014 | inactive: 0.034 | – | – | inactive: -0.068 | – | inactive: -0.214 | inactive: 0.037 | inactive: -0.019 | inactive: -0.105 | – | inactive: 0.055 | inactive: 0.053 | inactive: -0.02 | inactive: -0.078
